Assay results: patent publication US20150328198A1, “METHODS OF TREATING METHICILLIN-RESISTANT STAPHYLOCOCCUS AUREUS (MRSA) USING PPAR-GAMMA AGONISTS” (priority 2014, published 2015)
At least one structure is not confirmed: it was looked up by name or label, or the drawing left a doubt.

Test system: MRSA
Test: murine MRSA skin and soft tissue infection (SSTI) model
Format: in vivo, mice
Conditions: for host wound healing response: mouse, in vivo
Source text: Peroxisome Proliferator Activator Receptor-γ (PPAR-γ) is a nuclear receptor that inhibits inflammation and redirects macrophages towards an M2 phenotype by driving Arg-1, Scd-1, SSAT and fatty acid synthesis gene expression. PPAR-γ is therefore involved in the development of adipocytes as well as M2-MΦs.

Structure (SMILES) | host wound healing response | duration of MRSA SSTIs (treated mice) | effectiveness against MRSA SSTI relative to Rosiglitazone/Pioglitazone (data not shown)
CC1(COc2ccc(CC3SC(=O)NC3=O)cc2)CCCCC1 (centres unmarked) [Ciglitazone] | not | – | –
CCc1ccc(CCOc2ccc(CC3SC(=O)NC3=O)cc2)nc1 (centres unmarked) [Pioglitazone] | hasten | dramatically shortened | –
Cc1c(C)c2c(c(C)c1O)CCC(C)(COc1ccc(CC3SC(=O)NC3=O)cc1)O2 (centres unmarked) [Troglitazone] | not | – | not as effective
